Measured values published in patent US7034208B1, “Ahas inhibiting herbicide resistant wheat and method for selection thereof” (BASF Aktiengellschaft, priority 1991, dated 2006).
Some entries share one result that the patent states for a list of compounds.

How the values were obtained:
[1] = system: mutant wheat selections FS1-FS4 and Fidel; type: in vivo; conditions: mutant wheat FS1-FS4 versus Fidel; postemergence; four weeks after treatment
Excerpt: This greenhouse test examines the level and spectrum of herbicide resistance of the mutant selections at the whole plant level. […] These lines are bulked according to their parental lines: FS1, FS2, FS3 and FS4. Fidel (wild-type) is used is a control and for performance comparison purposes. Five seeds from each of these lines (including Fidel) are planted per pot in six inch Azalea pots and are later thinned to three plants per pot. Three replicates are used per treatment (chemical and rate) for each line, and six replicates per wheat line are used as untreated controls. Plants are sprayed postemergence, 10 days after planting, with the following herbicides and rates: […]

[2] = system: wheat seed of the susceptible cultivar Fidel; experiment: Pre-emergence herbicide application, rate finding; type: in vivo; conditions: visual toxicity after three to four weeks

SMILES | increased tolerance of mutant wheat [1] [fold] | most effective rate, pre-emergent spray [2]
CC(C)C1(C)N=C(c2ncccc2C(=O)O)NC1=O (stereo not drawn) [ARSENAL, 2-(4-isopropyl-4-methyl-5-oxo-2-imidazolin-2-yl)-nicotinic acid] | > 16 | –
CC(C)C1(C)N=C(c2nc3ccccc3cc2C(=O)O)NC1=O (stereo not drawn) [SCEPTER, 2-(4-isopropyl-4-methyl-5-oxo-2-imidazolin-2-yl)-3-quinolinecarboxylic acid] | > 16 | 300-350 g/ha
